# Experimental data taken from PubChem BioAssay AID2685 (National Center for Advancing Translational Sciences (NCATS), 2010).
# The other results are listed elsewhere or left out. The main result of the screen is listed elsewhere. These columns were measured beside it and carry no call. Most of these compounds were active or inconclusive in the main read-out, so they are no random draw. Potencies come from curve fits of mixed quality, noted in brackets.
# Test: qHTS Assay for Lipid Storage Modulators in Drosophila S3 Cells;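 on cell number change: cells counted by Cell Tracker Red CMTPX staining in the red channel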
# Conditions: BODIPY lipid droplet fluorescence, 18-24 h; for cell number change: measured here: cell count max response, cells fed with added oleic acid
# How it was run: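 Laser-scanning cytometry quantifies lipid droplet accumulation (500–530 nm total intensity; droplet/cell object ratio) in oleic acid-fed (400 uM added) Drosophila S3 cells treated with a concentration series. 20 uM Triacsin C defined 100% inhibition.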
# [1] = measured here: lipid fluorescence (Fed channel) AC50, cells fed with added oleic acid
# [2] = measured here: cell number channel AC50, cells fed with added oleic acid
Structure (SMILES),cell number change [%],AC50 [1],AC50 [2]
CCn1c(SCc2ccccc2)nc2cc(OC)c(OC)cc2c1=O,-2.03,"6.51 µM [falling, single point]",–
COc1ccc(NC(=O)c2sc(-c3ccccc3)nc2C)c(OC)c1,24.3,–,–
O=C(COc1ccccc1)NCC(=O)N/N=C/c1ccccc1,-66.7,"14.6 µM [rising, partial curve]","29.1 µM [falling, partial curve, poor fit]"
COc1ccccc1C(=O)Nc1c(C)n(C)n(-c2ccccc2)c1=O,-3.29,"0.146 µM [rising, full curve, poor fit]",–
CC(C)C(NC(=O)c1ccc2c(c1)OCCO2)c1nc2ccccc2[nH]1 (stereo unspecified),3.67,"0.13 µM [falling, full curve, poor fit]",–
CCCCn1c(SCC(=O)Nc2ccc(OC)cc2)nc2ccc(N3CCOCC3)cc2c1=O,116,"0.461 µM [rising, full curve, poor fit]","6.51 µM [rising, partial curve, poor fit]"
CC(=O)Nc1ccc(NC(=O)C(=O)NCC(c2ccco2)N2CCc3ccccc3C2)cc1 (stereo unspecified),-39.4,"3.26 µM [falling, partial curve, poor fit]","29.1 µM [falling, single point]"
CCOC(=O)Nc1sc(C(=O)N(CC)CC)c(C)c1C(=O)OCC,–,"0.206 µM [rising, full curve, poor fit]","3.26 µM [rising, partial curve]"
C/C(=N\Oc1cccc(F)n1)c1ccc(Cl)cc1Cl,27.9,"0.58 µM [falling, partial curve, poor fit]",–
NS(=O)(=O)c1ccc(NC(=O)COC(=O)COc2ccc3ccccc3c2)cc1,12.5,"32.6 µM [falling, partial curve, poor fit]",–
CCOc1cccc(C(=O)Nc2nnc(-c3ccco3)s2)c1,-80.4,"20.6 µM [falling, single point]","1.84 µM [falling, partial curve]"
CCOC(=O)N1CCC(n2c(=S)[nH]c3cc(OC)c(OC)cc3c2=O)CC1,9.23,–,–
COc1ccc(NC(=O)c2ccc(Cl)c(S(=O)(=O)N3CCc4ccccc4C3)c2)cn1,-72.2,–,–
Cn1c(NC(=O)c2ccccc2NC(=O)C(C)(C)C)nc2ccccc21,–,"0.82 µM [rising, full curve, poor fit]","2.06 µM [rising, partial curve]"
CC(=O)N1CCN(c2ccc(C(N)=O)cc2[N+](=O)[O-])CC1,-14.9,–,–
Cc1cc(C(=O)N2CCc3ccccc3C2)n[nH]1,-12.6,"32.6 µM [rising, partial curve, poor fit]",–
CC[C@H]1c2[nH]c3ccccc3c2C[C@H]2C(=O)N(c3ccc(F)cc3)C(=O)N21,–,"0.206 µM [rising, full curve, poor fit]",–
COc1cc(OC)c(OC)cc1CN1CCCC(C(=O)c2ccc3c(c2)OCO3)C1 (stereo unspecified),-6.06,"6.51 µM [falling, single point]",–
Cc1cccnc1NC(=S)Nc1ccc(F)cc1F,-7.97,"3.26 µM [falling, single point]",–

Structure (SMILES),cell number change [%],AC50 [1],AC50 [2]
O=C(c1cc(-c2ccc(O)cc2)on1)N1CCN(c2ccccc2)CC1,6.76,"6.51 µM [rising, single point]",–
Nc1ccc(S(=O)(=O)N2CCc3ccccc32)cc1,-8.11,"6.51 µM [rising, single point]",–
O=C(CSc1ccc(Cl)cc1)N1CCOCC1,10.2,"16.4 µM [rising, single point]",–
CCOC(=O)c1nc(N)c(C(=O)OCC)[nH]1,–,–,"0.13 µM [rising, full curve, poor fit]"
COc1cccc(NC(=O)c2cccc(N3C(=O)C4C5C=CC(C5)C4C3=O)c2)c1 (stereo unspecified),–,"4.11 µM [rising, single point]","0.82 µM [rising, partial curve, poor fit]"
COc1ccc(C)cc1S(=O)(=O)Nc1cccc(-c2ccc(N3CCCCCC3)nn2)c1,26.6,"20.6 µM [rising, partial curve]",–
COc1ccc(NC(=O)CN(C)C(=O)/C=C/c2cn(-c3ccccc3)nc2-c2ccc(C)cc2)cc1,50,–,"6.51 µM [rising, single point]"
O=C(CCN1CCOCC1)c1ccc(Cl)cc1,-58.7,"16.4 µM [falling, partial curve]","18.4 µM [falling, single point]"
CCCSc1nnc2nc(C)cc(C)n12,12.2,"0.146 µM [falling, single point]",–
Cc1cc2c(cc(C(=O)OCC(=O)NCc3ccco3)n2C)s1,-33.8,–,"4.61 µM [falling, full curve, poor fit]"
CCCC(O)(c1ccc(Br)cc1)C(CN1CCOCC1)c1ccc(Cl)cc1 (stereo unspecified),-39.7,"29.1 µM [falling, single point]","20.6 µM [falling, single point]"
COc1ccccc1N(C)S(=O)(=O)c1ccc(C(=O)NCCc2ccc(F)cc2)cc1,13.1,"29.1 µM [falling, single point]",–
COc1ccc(-n2nc([N+](=O)[O-])c(=NCCc3cccc(C)c3)n2O)cc1,-32.5,–,–
O=C(c1ccc(OC2CCN(C/C=C/c3ccccc3)CC2)cc1)N1CCCCC1,36.4,"0.0731 µM [rising, full curve, poor fit]","5.17 µM [rising, full curve, poor fit]"
O=C(COc1ccccc1)NNC(=O)c1cc2ccccc2o1,22.6,"2.31 µM [falling, single point]",–
Cc1ccnc(NC(=O)CNC(=O)c2sc3ccccc3c2Cl)c1,-1.1,"29.1 µM [falling, single point]",–
Cc1cc(C2(c3cc(C)c(NC(=O)CN4CCOCC4)c(C)c3)CCCCC2)cc(C)c1NC(=O)CN1CCOCC1,-35.2,"6.51 µM [falling, single point]","29.1 µM [falling, single point]"
COc1ccc(NC(=O)CN2C(=O)C(C)Oc3ccc(C)cc32)cc1 (stereo unspecified),3.69,"29.1 µM [falling, single point]",–
CCS(=O)(=O)N1N=C(c2ccccc2)CC1c1ccc2nccnc2c1 (stereo unspecified),25.6,"5.8 µM [rising, full curve, poor fit]",–

Structure (SMILES),cell number change [%],AC50 [1],AC50 [2]
O=C(CSCc1cnn(-c2ccccc2)c1-n1cccc1)NCc1cccnc1,30.6,–,–
Cc1ccc(C)c(-c2nnc(NC(=O)CCS(=O)(=O)c3ccccc3)o2)c1,–,"0.651 µM [rising, partial curve, poor fit]","6.51 µM [rising, partial curve, poor fit]"
Cc1ccc(Nc2nc3ccccc3nc2Nc2c(C)n(C)n(-c3ccccc3)c2=O)cc1,0.447,"0.146 µM [rising, full curve, poor fit]",–
CN1CCC(N(C)C(=S)NCCc2ccccc2)CC1,-36.4,–,"7.31 µM [falling, partial curve, poor fit]"
O=C(N/N=C/c1c[nH]c2ccccc12)c1ccccc1,-15.7,"6.51 µM [rising, single point]",–
O=C(CN1CCCC1)NCC1(c2ccccc2)CCOCC1,26.4,"5.8 µM [rising, single point]","3.26 µM [rising, single point]"
CNC(C)c1ccc(S(N)(=O)=O)cc1 (stereo unspecified),-36.2,"0.517 µM [falling, full curve]","0.0291 µM [falling, partial curve, poor fit]"
CC(C)(C)C(=O)Nc1nc(-c2ccc3c(c2)OCO3)cs1,–,"0.731 µM [rising, partial curve, poor fit]",–
C[C@H](NC(=O)c1nc[nH]c1C(=O)N[C@@H](Cc1ccccc1)C(=O)OCc1ccccc1)C(=O)OC(C)(C)C,59,"0.164 µM [falling, partial curve, poor fit]","29.1 µM [rising, single point]"
Cc1ccccc1N(C(=O)c1snc(C(N)=O)c1N)C(C(=O)NCc1ccccc1)c1ccc(O)cc1 (stereo unspecified),-30.6,–,"23.1 µM [falling, single point]"
COc1ccccc1CCNC(=O)C(=O)NCC1OCCN1S(=O)(=O)c1ccc(Cl)cc1 (stereo unspecified),30.3,"14.6 µM [rising, single point]","1.16 µM [rising, full curve, poor fit]"
Cc1cc(C)c(C)c(C(=O)CSc2nnc(-c3ccc4[nH]c(C)c(C)c4c3)o2)c1C,-75.5,"13 µM [falling, partial curve]","11.6 µM [falling, partial curve]"
CCOC(=O)c1cc(-c2ccccc2)n(Cc2cc(CC)no2)n1,–,"5.17 µM [falling, partial curve, poor fit]",–
O=C(NC1CCCC1)C(c1ccc(F)cc1)N(C(=O)c1csnn1)c1ccccc1 (stereo unspecified),-21.9,–,–
Cc1ccnc(SCc2nc3ccccc3s2)n1,8.89,–,–
CC(=O)Nc1cccc(N(C)C)c1,-5.66,–,–
CC(=O)Nc1ccc(S(=O)(=O)N2CCN(CC(O)COc3ccc4ccccc4c3)CC2)cc1 (stereo unspecified),-12,"2.59 µM [rising, single point]",–
COc1cc(NC(=O)CSc2nc(=O)n(CCN3CCOCC3)c3c2CCC3)cc(OC)c1,–,–,"0.206 µM [rising, partial curve]"

# 3 compounds drawn at random from those above:
Structure (SMILES),cell number change [%],AC50 [1],AC50 [2]
COc1cc(OC)c(OC)cc1CN1CCCC(C(=O)c2ccc3c(c2)OCO3)C1 (stereo unspecified),-6.06,"6.51 µM [falling, single point]",–
O=C(COc1ccccc1)NNC(=O)c1cc2ccccc2o1,22.6,"2.31 µM [falling, single point]",–
Cc1ccccc1N(C(=O)c1snc(C(N)=O)c1N)C(C(=O)NCc1ccccc1)c1ccc(O)cc1 (stereo unspecified),-30.6,–,"23.1 µM [falling, single point]"
